Paper PMC8624160
The exact form of at least one protein or probe is not confirmed.

Experiments:
[1] = test system: thrombin; assay: binding assay; conditions: Binding buffer, ex/em 333/426 nm, constant SITS-aptamer, thrombin titrated, triplicate, commercial protein, folded or branched DNA
[2] = test system: thrombin; assay: fluorescence attenuation kinetics (kapp); conditions: internal T6 (CH2)6-NH2 linker coupled to SITS; Binding buffer; ex/em 333/426 nm, constant SITS-aptamer, thrombin titrated, triplicate; commercial protein; label: SITS stilbene (T6); folded or branched DNA

Work on “AGTCCGTGGTAGGGCAGGTTGGGGTGACT [Thrombin29 (unmodified)]” yielded a Kd ([1]; section 4.2 gives ~0.7 nM instead) of 0.5 nM.
“GTCCGTGGTAGGGCAGGTTGGGGTGAC [SITS-Thrombin27 T6]” was tested, and the Kd [2] was 982 nM.
Work on “GTCCGTGGTAGGGCAGGTTGGGGTGAC [Thrombin27 (unmodified)]” yielded a Kd ([1]; section 4.2 gives ~0.5 nM instead) of 0.7 nM.
